This assay has as its target human SH3BGRL (human), O75368. Put plainly: AUC. The settings on record: remark: other sources report otherwise.

Results are given in words; binding and its absence hold for the method and conditions named.

B1: human SH3BGRL, O75368 1-114 (protein)
chain: MVIRVYIASSSGSTAIKKKQQDVLGFLEANKIGFEEKDIAANEENRKWMRENVPENSRPATGYPLPPQIFNESQYRGDYDAFFEARENNAVYAFLGLTAPPGSKEAEVQAKQQA
Turning to B1, the binding result is reported as “no binding”.

Source of the values: article doi:10.1101/2025.03.25.645244.
